Reference: the supplement of paper PMC10849652
The other results are listed elsewhere or left out.

By UniProt entry, the sequences of proteins in these tests, tags left out. Where a name states a change or a piece, a line headed by the entry shows the natural chain unless it says otherwise.
UniProt O95429: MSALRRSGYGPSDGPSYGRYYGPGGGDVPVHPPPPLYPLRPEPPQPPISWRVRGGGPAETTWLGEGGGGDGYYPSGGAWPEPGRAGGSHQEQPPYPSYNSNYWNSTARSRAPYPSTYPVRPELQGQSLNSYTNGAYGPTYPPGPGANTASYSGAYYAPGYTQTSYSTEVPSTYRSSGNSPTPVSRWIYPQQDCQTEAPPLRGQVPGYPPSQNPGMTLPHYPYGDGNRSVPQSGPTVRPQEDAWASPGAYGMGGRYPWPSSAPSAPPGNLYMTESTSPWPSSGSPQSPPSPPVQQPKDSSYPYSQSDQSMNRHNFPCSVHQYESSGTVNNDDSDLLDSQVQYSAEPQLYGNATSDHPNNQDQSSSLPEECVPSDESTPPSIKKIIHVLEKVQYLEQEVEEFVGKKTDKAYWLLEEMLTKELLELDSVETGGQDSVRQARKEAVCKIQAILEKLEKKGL
UniProt Q8NBF6: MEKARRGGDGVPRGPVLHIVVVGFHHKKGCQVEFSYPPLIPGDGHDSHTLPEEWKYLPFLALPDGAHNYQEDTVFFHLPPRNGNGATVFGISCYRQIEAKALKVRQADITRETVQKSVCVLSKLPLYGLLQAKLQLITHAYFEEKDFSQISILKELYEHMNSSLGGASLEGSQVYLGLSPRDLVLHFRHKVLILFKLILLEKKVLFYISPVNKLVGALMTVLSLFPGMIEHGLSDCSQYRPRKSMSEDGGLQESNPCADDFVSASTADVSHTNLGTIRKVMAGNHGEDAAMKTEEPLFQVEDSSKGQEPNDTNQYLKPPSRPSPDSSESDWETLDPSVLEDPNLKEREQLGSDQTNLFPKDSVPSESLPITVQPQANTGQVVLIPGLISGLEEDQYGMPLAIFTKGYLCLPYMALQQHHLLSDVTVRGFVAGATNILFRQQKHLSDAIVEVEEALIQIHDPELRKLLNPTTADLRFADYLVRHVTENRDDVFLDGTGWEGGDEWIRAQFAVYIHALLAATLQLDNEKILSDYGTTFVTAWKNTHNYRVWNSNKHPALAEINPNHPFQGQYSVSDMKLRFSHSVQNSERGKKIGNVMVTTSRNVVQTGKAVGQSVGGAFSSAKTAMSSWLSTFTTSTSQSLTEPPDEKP
UniProt O14965: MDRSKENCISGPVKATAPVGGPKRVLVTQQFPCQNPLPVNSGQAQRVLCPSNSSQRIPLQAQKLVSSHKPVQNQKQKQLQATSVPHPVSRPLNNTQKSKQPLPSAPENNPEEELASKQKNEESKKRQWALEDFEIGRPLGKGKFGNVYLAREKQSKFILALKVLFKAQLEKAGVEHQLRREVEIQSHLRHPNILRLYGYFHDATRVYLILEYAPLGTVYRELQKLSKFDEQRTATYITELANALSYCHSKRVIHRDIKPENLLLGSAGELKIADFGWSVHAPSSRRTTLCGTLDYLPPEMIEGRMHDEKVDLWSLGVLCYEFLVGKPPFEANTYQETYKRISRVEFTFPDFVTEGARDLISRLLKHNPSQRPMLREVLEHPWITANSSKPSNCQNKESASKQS
UniProt Q9UQB8: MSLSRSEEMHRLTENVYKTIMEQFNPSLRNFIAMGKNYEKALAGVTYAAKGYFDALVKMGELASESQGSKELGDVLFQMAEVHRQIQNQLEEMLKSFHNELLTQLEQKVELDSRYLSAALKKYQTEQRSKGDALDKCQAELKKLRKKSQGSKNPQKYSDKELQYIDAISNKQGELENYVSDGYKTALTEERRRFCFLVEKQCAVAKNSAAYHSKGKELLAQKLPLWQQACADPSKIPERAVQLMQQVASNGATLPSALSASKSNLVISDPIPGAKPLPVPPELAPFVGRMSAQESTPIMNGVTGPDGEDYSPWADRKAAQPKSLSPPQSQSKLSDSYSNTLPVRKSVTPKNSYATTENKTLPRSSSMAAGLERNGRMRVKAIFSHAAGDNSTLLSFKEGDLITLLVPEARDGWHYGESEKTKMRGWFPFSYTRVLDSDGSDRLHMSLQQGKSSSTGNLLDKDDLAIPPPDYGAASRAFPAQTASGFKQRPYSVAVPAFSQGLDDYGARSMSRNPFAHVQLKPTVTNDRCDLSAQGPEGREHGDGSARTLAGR
UniProt O95415: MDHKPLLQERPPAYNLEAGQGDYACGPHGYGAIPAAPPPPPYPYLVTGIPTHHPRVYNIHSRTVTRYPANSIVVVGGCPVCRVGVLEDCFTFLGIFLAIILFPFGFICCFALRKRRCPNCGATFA
UniProt Q9UL45: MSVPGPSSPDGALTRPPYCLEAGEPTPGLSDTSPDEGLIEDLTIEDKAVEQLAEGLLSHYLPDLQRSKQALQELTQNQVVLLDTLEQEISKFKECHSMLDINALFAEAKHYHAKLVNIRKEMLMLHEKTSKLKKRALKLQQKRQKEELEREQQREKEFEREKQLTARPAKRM
UniProt Q67FW5: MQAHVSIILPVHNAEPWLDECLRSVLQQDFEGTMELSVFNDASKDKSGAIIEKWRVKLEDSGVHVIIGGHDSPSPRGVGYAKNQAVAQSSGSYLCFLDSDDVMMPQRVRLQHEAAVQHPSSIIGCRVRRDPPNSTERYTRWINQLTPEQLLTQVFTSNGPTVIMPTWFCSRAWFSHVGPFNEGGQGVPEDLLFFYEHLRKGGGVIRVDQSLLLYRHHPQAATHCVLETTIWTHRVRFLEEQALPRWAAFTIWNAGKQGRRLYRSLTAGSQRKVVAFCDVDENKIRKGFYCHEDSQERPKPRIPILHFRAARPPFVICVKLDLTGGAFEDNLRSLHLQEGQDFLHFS
UniProt O14867: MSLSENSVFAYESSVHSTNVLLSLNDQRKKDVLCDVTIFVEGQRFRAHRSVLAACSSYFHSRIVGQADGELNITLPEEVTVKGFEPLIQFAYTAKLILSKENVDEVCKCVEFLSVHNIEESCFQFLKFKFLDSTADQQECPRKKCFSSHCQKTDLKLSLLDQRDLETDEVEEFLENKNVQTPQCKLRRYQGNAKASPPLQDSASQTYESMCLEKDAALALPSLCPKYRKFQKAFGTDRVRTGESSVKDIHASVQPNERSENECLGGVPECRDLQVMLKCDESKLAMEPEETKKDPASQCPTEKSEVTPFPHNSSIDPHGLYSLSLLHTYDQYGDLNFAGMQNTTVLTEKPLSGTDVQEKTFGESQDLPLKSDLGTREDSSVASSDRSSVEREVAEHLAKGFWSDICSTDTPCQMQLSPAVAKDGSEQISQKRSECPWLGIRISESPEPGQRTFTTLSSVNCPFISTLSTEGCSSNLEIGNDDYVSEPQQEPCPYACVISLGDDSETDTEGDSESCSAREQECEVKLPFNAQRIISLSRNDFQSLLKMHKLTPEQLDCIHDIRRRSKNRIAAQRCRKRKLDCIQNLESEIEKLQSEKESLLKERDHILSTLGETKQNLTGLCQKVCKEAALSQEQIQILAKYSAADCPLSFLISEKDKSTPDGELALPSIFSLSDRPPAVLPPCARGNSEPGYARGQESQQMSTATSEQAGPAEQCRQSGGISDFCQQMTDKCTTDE
UniProt P25440, whole entry, looked up: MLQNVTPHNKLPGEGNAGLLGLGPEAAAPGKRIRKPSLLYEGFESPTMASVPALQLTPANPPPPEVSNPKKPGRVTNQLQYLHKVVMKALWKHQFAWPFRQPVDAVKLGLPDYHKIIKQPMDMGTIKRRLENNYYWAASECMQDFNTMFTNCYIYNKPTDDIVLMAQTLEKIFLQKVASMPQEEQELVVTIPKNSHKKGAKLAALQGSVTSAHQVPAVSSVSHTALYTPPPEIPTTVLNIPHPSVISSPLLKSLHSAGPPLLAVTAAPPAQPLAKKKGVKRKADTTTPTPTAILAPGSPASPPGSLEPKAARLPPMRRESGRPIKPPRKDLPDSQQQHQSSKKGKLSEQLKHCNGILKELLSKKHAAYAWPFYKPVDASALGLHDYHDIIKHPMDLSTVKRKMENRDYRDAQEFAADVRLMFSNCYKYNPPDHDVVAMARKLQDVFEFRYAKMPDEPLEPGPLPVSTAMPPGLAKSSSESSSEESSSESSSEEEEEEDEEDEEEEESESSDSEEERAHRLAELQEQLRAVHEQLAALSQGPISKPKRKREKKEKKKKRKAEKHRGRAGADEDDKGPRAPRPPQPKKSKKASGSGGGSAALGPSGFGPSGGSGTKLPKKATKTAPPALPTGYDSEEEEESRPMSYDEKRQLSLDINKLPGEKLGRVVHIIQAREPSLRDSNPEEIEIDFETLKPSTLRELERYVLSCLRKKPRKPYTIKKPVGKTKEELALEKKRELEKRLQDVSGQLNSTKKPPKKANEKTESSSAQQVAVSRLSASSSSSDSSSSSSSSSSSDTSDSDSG
UniProt Q8WY22: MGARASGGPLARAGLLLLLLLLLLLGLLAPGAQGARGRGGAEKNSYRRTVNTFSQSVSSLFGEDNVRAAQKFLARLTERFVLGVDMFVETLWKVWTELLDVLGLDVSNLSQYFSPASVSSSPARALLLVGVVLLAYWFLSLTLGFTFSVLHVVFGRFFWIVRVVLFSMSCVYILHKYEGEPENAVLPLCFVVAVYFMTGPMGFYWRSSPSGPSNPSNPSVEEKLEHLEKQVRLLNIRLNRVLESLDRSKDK
UniProt P07738: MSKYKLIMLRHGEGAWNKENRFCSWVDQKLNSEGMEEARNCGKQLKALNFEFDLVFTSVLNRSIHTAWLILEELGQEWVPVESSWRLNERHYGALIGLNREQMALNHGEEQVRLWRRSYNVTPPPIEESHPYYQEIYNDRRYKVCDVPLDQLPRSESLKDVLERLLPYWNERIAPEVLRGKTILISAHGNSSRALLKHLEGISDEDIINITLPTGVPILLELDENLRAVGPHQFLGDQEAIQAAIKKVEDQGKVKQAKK
UniProt O94766: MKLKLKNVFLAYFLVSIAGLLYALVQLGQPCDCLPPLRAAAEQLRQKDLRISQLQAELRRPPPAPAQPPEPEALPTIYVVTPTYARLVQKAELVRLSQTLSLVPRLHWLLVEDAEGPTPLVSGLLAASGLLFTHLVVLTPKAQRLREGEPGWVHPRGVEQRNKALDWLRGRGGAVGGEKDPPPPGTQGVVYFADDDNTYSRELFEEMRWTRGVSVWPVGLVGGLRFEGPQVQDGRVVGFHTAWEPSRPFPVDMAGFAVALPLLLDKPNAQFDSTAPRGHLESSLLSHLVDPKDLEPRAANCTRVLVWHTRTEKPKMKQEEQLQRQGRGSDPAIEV
UniProt O60513: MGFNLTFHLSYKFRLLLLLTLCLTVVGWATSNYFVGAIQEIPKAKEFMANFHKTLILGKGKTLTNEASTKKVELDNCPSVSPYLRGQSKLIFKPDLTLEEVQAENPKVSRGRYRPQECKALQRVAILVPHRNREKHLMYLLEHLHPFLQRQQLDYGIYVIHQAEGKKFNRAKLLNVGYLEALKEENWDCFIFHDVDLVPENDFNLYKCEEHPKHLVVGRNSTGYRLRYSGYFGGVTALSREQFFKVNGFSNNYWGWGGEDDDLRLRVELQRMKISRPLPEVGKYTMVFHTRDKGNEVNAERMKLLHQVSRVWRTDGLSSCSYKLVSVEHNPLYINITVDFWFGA
UniProt Q6PGQ7, whole entry, looked up: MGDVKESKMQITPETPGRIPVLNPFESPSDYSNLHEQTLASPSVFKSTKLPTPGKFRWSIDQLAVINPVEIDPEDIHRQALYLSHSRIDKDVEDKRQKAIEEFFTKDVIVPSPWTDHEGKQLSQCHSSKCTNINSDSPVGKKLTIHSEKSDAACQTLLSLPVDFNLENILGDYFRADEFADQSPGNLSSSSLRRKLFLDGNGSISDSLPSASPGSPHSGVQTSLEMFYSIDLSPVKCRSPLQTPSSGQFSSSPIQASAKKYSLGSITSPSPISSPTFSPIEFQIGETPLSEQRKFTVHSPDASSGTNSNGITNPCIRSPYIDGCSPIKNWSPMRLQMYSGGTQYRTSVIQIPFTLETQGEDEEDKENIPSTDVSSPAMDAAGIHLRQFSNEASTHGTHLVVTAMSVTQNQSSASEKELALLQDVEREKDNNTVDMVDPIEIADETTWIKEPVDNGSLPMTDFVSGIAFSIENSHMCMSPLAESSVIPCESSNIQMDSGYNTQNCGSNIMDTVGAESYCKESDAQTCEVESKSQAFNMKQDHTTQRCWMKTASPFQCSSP
UniProt P61769, whole entry, looked up: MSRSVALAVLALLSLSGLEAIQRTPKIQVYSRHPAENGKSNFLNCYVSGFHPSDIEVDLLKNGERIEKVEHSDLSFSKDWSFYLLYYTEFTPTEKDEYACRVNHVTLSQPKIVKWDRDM
UniProt Q9Y276: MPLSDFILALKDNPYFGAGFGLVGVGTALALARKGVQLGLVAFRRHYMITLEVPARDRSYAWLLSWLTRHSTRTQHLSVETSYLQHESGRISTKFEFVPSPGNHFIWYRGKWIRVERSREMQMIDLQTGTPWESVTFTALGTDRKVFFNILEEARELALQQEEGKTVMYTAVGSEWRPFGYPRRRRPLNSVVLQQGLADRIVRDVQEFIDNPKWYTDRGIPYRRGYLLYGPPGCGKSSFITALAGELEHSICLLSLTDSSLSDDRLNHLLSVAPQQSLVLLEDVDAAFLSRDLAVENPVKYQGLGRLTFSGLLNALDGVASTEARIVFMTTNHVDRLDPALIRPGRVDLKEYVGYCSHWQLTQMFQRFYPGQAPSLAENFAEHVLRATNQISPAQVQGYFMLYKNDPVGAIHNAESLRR

Key:
Assay in all cases: log2 fold change, soluble protein after heating vs DMSO (PISA); higher = thermal stabilisation; K562 cells, 10 uM, 30 min; active = over 0.2 and 3.5 SD of the protein, either way, in both replicates (recomputed)
[1] = compound: C1=CC=C(C=C1)[C@H](COC2=CC3=C(C=C2)NC(=O)N3)NC(=O)C4=CC=CN(C4=O)CC5=CC(=C(C=C5)F)F
Summary of the method: (§1)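 Values are thermal stability changes relative to control samples and are taken from duplicates. They are stated as log2 fold changes. Before quantification by TMTpro 16plex LC-MS/MS with equalised channel sums, K562 cells at 2×10^6 cells/mL were treated with 10 μM compound for 30 min, heated in aliquots for 3 min across 48°C-58°C, pooled, extracted in PBS with 0.5% NP-40 at 4°C, and centrifuged at 21,000xg for 90 min to give the soluble supernatant.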

[2] = compound: CC1=C(SC2=C1C(=N[C@H](C3=NN=C(N32)C)CC(=O)N)C4=CC=C(C=C4)Cl)C
Summary of the method: as §1

[3] = compound: CC1=C2C(=CC=C1)N=C(N(C2=O)C3=CC=CC=C3C)CN4C=NC5=C(N=CN=C54)N
Summary of the method: as §1

[4] = compound: Cc1sc2c(c1C)C(c1ccc(Cl)cc1)=N[C@@H](CC(=O)OC(C)(C)C)c1nnc(C)n1-2
Summary of the method: as §1

[5] = compound: c1ccc([C@@H]2C[C@H]2NC2CCNCC2)cc1
Summary of the method: as §1

Measured: log2 fold change

BAG4 (UniProt O95429)
inactive: [1] 0.014 | [2] 0.123 | [3] 0.081 | [4] 0.021 | [5] 0.024

AVL9 (UniProt Q8NBF6)
inactive: [1] -0.033 | [2] 0.064 | [3] 0.051 | [4] 0.02 | [5] -0.035

BCL2L1 (UniProt Q07817)
inactive: [1] -0.024 | [2] 0.021 | [3] 0.016 | [4] -0.077 | [5] -0.008

BRD3 (UniProt Q15059)
inactive: [1] 0.002 | [3] 0 | [5] -0.021
active: [2] 1.9 | [4] 1.56

BPHL (UniProt Q86WA6)
inactive: [1] -0.015 | [2] 0.052 | [3] 0.075 | [4] 0.136 | [5] -0.065

AURKA (UniProt O14965)
inactive: [1] 0 | [2] 0.148 | [3] 0.018 | [4] 0.009 | [5] -0.038

BAIAP2 (UniProt Q9UQB8)
inactive: [1] -0.019 | [2] 0.071 | [3] 0.072 | [4] 0.014 | [5] 0.002

BROX (UniProt Q5VW32)
inactive: [1] -0.029 | [2] 0.058 | [3] 0.109 | [4] -0.01 | [5] -0.006

BOLA3 (UniProt Q53S33)
inactive: [1] 0.023 | [2] 0.027 | [3] 0.046 | [4] -0.017 | [5] -0.011

BRAF (UniProt P15056)
inactive: [1] -0.04 | [2] 0.075 | [3] 0.041 | [4] -0.018 | [5] -0.027

BLVRA (UniProt P53004)
inactive: [1] -0.062 | [2] 0.104 | [3] 0.054 | [4] -0.024 | [5] -0.066

BRI3 (UniProt O95415)
inactive: [1] 0.018

BLOC1S6 (UniProt Q9UL45)
inactive: [1] -0.003 | [2] -0.002 | [3] 0.017 | [4] -0.012 | [5] -0.032

B3GNTL1 (UniProt Q67FW5)
inactive: [1] 0.009 | [2] 0.091 | [3] 0.093 | [4] -0.019 | [5] -0.005

BAK1 (UniProt Q16611)
inactive: [1] -0.035 | [2] 0.09 | [3] 0.059 | [4] -0.001 | [5] 0.026

BNIP2 (UniProt H7C096)
inactive: [1] 0.04

BACH1 (UniProt O14867)
inactive: [1] 0.011 | [2] 0.031 | [3] -0.002 | [4] 0.04 | [5] -0.014

BRD2 isoform 2 (UniProt P25440)
inactive: [1] -0.257 | [3] 0.092 | [5] 0.029
active: [2] 2.34 | [4] 2.33

ATXN2L (UniProt H3BUF6)
inactive: [1] 0.017

Fetched one by one from the list above, 2 records:
BACH1 (UniProt O14867)
inactive: [1] 0.011 | [2] 0.031 | [3] -0.002 | [4] 0.04 | [5] -0.014

BAK1 (UniProt Q16611)
inactive: [1] -0.035 | [2] 0.09 | [3] 0.059 | [4] -0.001 | [5] 0.026

(next part)

BPIFA1 (UniProt Q9NP55)
inactive: [1] 0.022

BRI3BP (UniProt Q8WY22)
inactive: [1] 0.165 | [2] 0.131 | [3] 0.075 | [4] 0 | [5] 0.134

BPGM (UniProt P07738)
inactive: [1] -0.025 | [2] 0.065 | [3] 0.015 | [4] -0.018 | [5] 0.044

B3GAT3 (UniProt O94766)
inactive: [1] 0 | [2] 0.006 | [3] -0.157 | [4] 0.069 | [5] -0.017

BNIP1 (UniProt Q12981)
inactive: [1] -0.046 | [2] 0.042 | [3] 0.091 | [4] -0.025 | [5] -0.03

B4GALT4 (UniProt O60513)
inactive: [1] 0.084

ATXN7L3 isoform 2 (UniProt Q14CW9)
inactive: [1] -0.156

BORA (UniProt Q6PGQ7)
inactive: [1] 0.159

B2M (UniProt P61769)
inactive: [1] 0.01 | [2] 0.25 | [3] 0.156 | [4] -0.045 | [5] -0.214

BSDC1 (UniProt Q9NW68)
inactive: [1] 0 | [2] 0.049 | [3] 0.001 | [4] -0.015 | [5] 0.023

BCS1L (UniProt Q9Y276)
inactive: [1] 0.049 | [2] 0.031 | [3] 0.004 | [4] -0.042 | [5] -0.009

BCS1L, A0A2R8Y7T3
inactive: [1] -0.159

BORCS5 (UniProt Q969J3)
inactive: [1] -0.017 | [2] 0.005 | [3] -0.13 | [4] -0.076 | [5] 0.022
